We go through six compounds from the supplement of paper PMC4604168 (melanoma cell lines).

The list shows a part of the results. Many values rest on one well or one pass, so single values are uncertain.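 Cells were imaged in 1,536-well plates, and nuclei stained with an antibody against cleaved PARP were counted against all DNA-stained nuclei to give the apoptosis fraction. Screening doses were chosen to leave most cells alive, and resting and induced cleaved-PARP levels differ strongly between cell lines.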

This assay deals with G361. In words: cleaved PARP positive nuclei fraction relative to DMSO control; melanoma cells; higher = more apoptosis. As to conditions: library dose: low library concentration; 72 h.
Turning to `O=C1NC(=O)/C(=C/c2ccc(-c3ccc(F)cc3O)o2)S1` + COc1cc(N2CCC(N3CCN(C)CC3)CC2)ccc1Nc1ncc(Cl)c(Nc2ccccc2S(=O)(=O)C(C)C)n1 [NVP-TAE684] (first compound 1 µM, partner dose 0.08 µM), the “cleaved PARP positive nuclei fraction” value is 90.1%.

In the case of `O=C(O)c1ccc(-c2c[nH]c3ncc(-c4ccccc4)cc23)cc1C1CCCC1` + O=C(O)C(=O)Nc1sc2c(c1C(=O)O)CCNC2 [TCS401] (first compound 0.16 µM, partner dose 1.66667 µM), the “cleaved PARP positive nuclei fraction” value was determined as 175%.

Regarding `CN(NC(=O)CC(=O)NN(C)C(=S)c1ccccc1)C(=S)c1ccccc1` + CCN(CC)CCCCNc1ncc2cc(-c3cc(OC)cc(OC)c3)c(NC(=O)NC(C)(C)C)nc2n1 [PD173074] (first compound 0.006 µM, partner dose 0.1 µM), the “cleaved PARP positive nuclei fraction” value amounted to 104%.

Turning to `NCC(=O)Nc1ccc(-n2nc(C(F)(F)F)cc2-c2ccc3c(ccc4ccccc43)c2)cc1` + Cc1cc([N+](=O)[O-])ccc1NS(=O)(=O)c1cc(Cl)ccc1Cl [FH535] (first compound 1 µM, partner dose 1 µM), the “cleaved PARP positive nuclei fraction” value amounted to 69.1%.

Take `COc1ccc(COc2ccc(Cc3cnc(N)nc3N)cc2OC)cc1` + O=S(=O)(c1ccccc1)N(CC(F)(F)F)c1ccc(C(O)(C(F)(F)F)C(F)(F)F)cc1 [T0901317] (first compound 1 µM, partner dose 1.4 µM): the “cleaved PARP positive nuclei fraction” value was found to be 144%.

With `O=C(Nc1ccccc1)c1cc([N+](=O)[O-])ccc1Cl` + COc1ccc(COc2ccc(Cc3cnc(N)nc3N)cc2OC)cc1 [GW2580] (first compound 2 µM, partner dose 1 µM), the “cleaved PARP positive nuclei fraction” value was 128%.
